PubChem BioAssay AID540276 (National Center for Advancing Translational Sciences (NCATS), 2011)
Hit rate of the full screen: of about 300,000 compounds, about 5,400 (1.8%) were called active. Inconclusive results, whose numbers are uncertain, are shown with a selection of clear calls. Calls follow the shape of the full dose curve; tested in HEK293 cells. Where the call is inconclusive, the potency comes from a doubtful curve fit.

assay: qHTS for inhibitors of binding or entry into cells for Marburg Virus; conditions: Marburg virus pseudotyped entry inhibition, cell reporter; activity change, negative = inhibition: at 37.8 µM (top of the series) unless noted
% is scaled to controls: 0 for no effect and ±100 for the full control effect; potency is read from the fitted curve at half-maximal effect.

| Compound | Potency | activity change, negative = inhibition |
| --- | --- | --- |
| CCc1cccc(C)c1NC(=O)CSc1nnc(CCCOc2ccc(Cl)cc2Cl)n1C | inconclusive: 11.2 µM [inhibitor, single point] |  |
| N/C(=N\OC(=O)CCCc1ccccc1)c1ccccc1Cl | inconclusive: 1.26 µM [activator, partial curve, poor fit] |  |
| CN(C)S(=O)(=O)c1cc(NC(=O)CSc2ncc(C(F)(F)F)cc2Cl)ccc1Cl | inconclusive: 35.5 µM [inhibitor, single point] |  |
| Cc1ccc(/C=N\Nc2nc3ccc(Cl)cc3[nH]2)o1 |  | inactive: -14.8% |
| O=C(/C=C/c1ccccc1)NC(NC(=S)Nc1ccc(C(=O)O)cc1)C(Cl)(Cl)Cl (stereo not drawn) | inconclusive: 5.62 µM [activator, single point] |  |
| O=C(Nc1cccc(F)c1)c1ccc2c(c1)N(Cc1ccccc1)C(=O)c1ccccc1S2(=O)=O | inconclusive: 35.5 µM [inhibitor, partial curve, poor fit] |  |
| Cc1cccc(NC(=O)Cc2ccc(F)cc2)c1 | inconclusive: 35.5 µM [activator, partial curve, poor fit] |  |
| COc1ccc(OCCN2CCN(C(=O)c3ccc(OC)c(OC)c3)CC2)cc1 | inconclusive: 14.1 µM [inhibitor, partial curve, poor fit] |  |
| Cc1cccc(NC(=O)Cn2nnc3ccccc32)c1 | inconclusive: 10 µM [activator, single point] |  |
| CN(C)c1cccc(C(=O)NCc2ccccc2)c1 | inconclusive: 0.447 µM [inhibitor, partial curve, poor fit] |  |
| O=C1OC(c2ccccc2)=C/C1=C/N1CCOCC1 |  | inactive: 13.4% |
| Cc1ccc(C(=O)c2oc3ccccc3c2NC(=O)c2cc(-c3ccccc3O)n[nH]2)cc1 |  | inactive: -22.8% |
| COc1ccc(NC(=O)c2ccc([N+](=O)[O-])o2)cc1 | active: 11.2 µM |  |
| Cc1ccc(S(=O)(=O)N2CCN(C(=O)COC(=O)CCOc3ccccc3C)CC2)cc1 | inconclusive: 17.8 µM [activator, partial curve, poor fit] |  |
| COCCNC(=O)/C(C#N)=C/C=C/c1ccccc1[N+](=O)[O-] | inconclusive: 10 µM [inhibitor, partial curve, poor fit] |  |
| CCOc1ccc(CN(C)C(=O)CCl)cc1 | active: 11.2 µM |  |
| C/C(N)=C(/C#N)C(=O)COC(=O)c1cc(-c2ccc(C)cc2)nc2ccccc12 | inconclusive: 0.708 µM [activator, partial curve, poor fit] |  |
| COc1ccc(-n2nc3cc(C)c(NC(C)=O)cc3n2)cc1 | inconclusive: 2.82 µM [inhibitor, single point] |  |
| O=C(NCCCNC(=O)c1cc(Cl)ccc1Cl)c1cnccn1 |  | inactive: -6.09% [at 46.1 µM] |
| C[C@@H](C(=O)NCC1CC1)[C@@H]1C[C@@]1(C)[C@@H](NC(=O)OCc1ccccc1)c1ccccc1 |  | inactive: -17.7% |
| CC1(C)CCc2cc(-c3ccn(S(=O)(=O)c4ccccc4Cl)n3)ccc2O1 |  | inactive: 2.23% [at 14.2 µM] |
| O=C(CSc1nc(=O)n(CCCN2CCOCC2)c2c1CCCC2)Nc1ccccc1Cl | inconclusive: 6.31 µM [inhibitor, single point] |  |

Another view of some results above:
Compound	Potency	activity change, negative = inhibition
O=C(Nc1cccc(F)c1)c1ccc2c(c1)N(Cc1ccccc1)C(=O)c1ccccc1S2(=O)=O	inconclusive: 35.5 µM [inhibitor, partial curve, poor fit]	
Cc1cccc(NC(=O)Cc2ccc(F)cc2)c1	inconclusive: 35.5 µM [activator, partial curve, poor fit]	

Later entries

| Compound | Potency | activity change, negative = inhibition |
| --- | --- | --- |
| COc1ccc(OC)c(Cc2nnc(CCC(=O)NCc3nc4ccccc4s3)o2)c1 |  | inactive: -2.43% [at 46.1 µM] |
| C=Cc1ccc(Cn2c(C)c(CNCc3ccccc3C)c(C(=O)O)c2C)cc1 |  | inconclusive: 20.8% [activator] [at 46.1 µM] |
| Cc1ccc(S(=O)(=O)N(CC(=O)NCc2cccs2)c2ccccc2)cc1 | inconclusive: 6.31 µM [inhibitor, single point] |  |
| Cc1cc(S(=O)(=O)N2CCCC(N3CCOCC3)C2)c(C)cc1Cl (stereo not drawn) | inconclusive: 22.4 µM [inhibitor, single point] |  |
| O=C(Nc1ccc(Br)cn1)c1ccc([N+](=O)[O-])cc1Cl | inconclusive: 3.16 µM [activator, single point] |  |
| O=C(CSc1nnc(Nc2ccccc2F)s1)c1cc2ccccc2o1 | inconclusive: 14.1 µM [activator, single point] |  |
| N#C/C(=C\Nc1ccc2c(c1)OCCO2)c1nc2ccccc2[nH]1 | inconclusive: 11.2 µM [inhibitor, partial curve, poor fit] |  |
| C=CCc1ccccc1OCC(O)CN1CCN(c2ccccc2OC)CC1 (stereo not drawn) | inconclusive: 23.1 µM [inhibitor, single point] |  |
| Cc1ccc2oc3c(c(=O)c2c1)C(c1cccc(Br)c1)N(Cc1ccco1)C3=O (stereo not drawn) | inconclusive: 4.61 µM [inhibitor, full curve] |  |
| CN(C)CC(=O)Nc1nc(-c2ccccc2)cs1 |  | inactive: 14.6% |
| COc1ccc(C)cc1NC(=O)C(OC(=O)CNC(=O)c1ccc(Oc2ccccc2)cc1)c1ccccc1 (stereo not drawn) |  | inactive: 5.99% |
| O=C(CSc1nc2ccccc2n1Cc1ccccc1)N/N=C/c1ccco1 | inconclusive: 1.46 µM [inhibitor, partial curve, poor fit] |  |
| COc1ccc(CCNC(=O)c2c(N)n(CCN3CCOCC3)c3nc4ccccc4nc23)cc1OC | inconclusive: 16.4 µM [inhibitor, partial curve, poor fit] |  |
| COc1nnc(-c2ccc(C(=O)N3C[C@@H]4C[C@H](C3)c3cccc(=O)n3C4)cc2)c2ccccc12 | inconclusive: 7.94 µM [inhibitor, partial curve] |  |
| Nc1nc2ccc(-c3nc4ccccc4o3)cc2s1 | inconclusive: 35.5 µM [inhibitor, single point] |  |
| CCOC(=O)c1sc(-c2cccs2)nc1C |  | inactive: 11.1% |
| CSc1cccc(NC(=O)c2cnn3ccccc23)c1 | inconclusive: 15.8 µM [inhibitor, single point] |  |
| Cn1c(SCC(=O)NCc2cccs2)nnc1-c1cccs1 | inconclusive: 7.3 µM [activator, partial curve] |  |
| Cc1ccc2c(c1)nnn2C1CCN(C(=O)C2CCCCC2)CC1 | inconclusive: 23.1 µM [inhibitor, single point] |  |
| O=c1nc2c(O)cccn2c2c1c(=O)[nH]c1ccccc12 |  | inactive: -10.4% |
| COc1ccc2c(c1)cc1c(=O)n(CC(=O)NC3CC3)nc(C)n12 |  | inactive: 3.01% [at 46.1 µM] |
